The source of these data is article PMC3808306.

No constants are given. Whether binding was seen depends on the method and setting. In cells and extracts the contact can be indirect. A result given as binding can be weak or reduced; the word gives no strength.

The experiment concerns the target GaBLT-GFP (full-length GaBLT coding region fused to GFP), expressed in transgenic callus (Gossypium arboreum) (UniProt I3QNV5). The experiment can be described thus: co-IP; extracts of 35S::STI+35S::GaBLT-GFP transgenic callus; immunoprecipitated with anti-GFP antibody and protein G-agarose; STI detected by western blot with anti-STI antibody; pre-immune serum (IgG) as control. A general note: In western blotting, separated proteins are transferred to a membrane and probed.

B1: Arabidopsis STICHEL (STI), expressed in transgenic callus (protein, UniProt O64728 1-1218)
chain: MSGSRVSDLSKLHLKKELTQIRKAGRVLRDPGTTSSWKSPLDSSRSVALLETPASRNGGSSSQFPIRGESSTNRRGKEKKVFLYNWKTQKSSSEKSGLAKNGKEEEEEEEDASSWTQASVNDDDDVSDARNGGDSYRREIQSASMGFRCRDTNLASQGVSKMRKSNVGSCKKKSKKKISSSRLDCLSKYQPRDDIVARNCNAGSDDTEEELSNSEDLRKVTGASPLLLKLKQKNWSRSSSRLLRANNRKEDSSCTYNSTPALSTSSYNMYAVRNPSTVGSWDGTTTSVNDGDDELDDNLDLPGRQGCGIPCYWTKKAMKHRGGCRSCCSPSFSDTLRRTGSSILCGSQSVYRRHNRHSSGGYSKQKIACRSAQGVLPLLSYGGDGRGGSSLGTGLSDDELSTNYGELDLEAQSRLDGRRWSTSYRSQDGLEAVALDGEEEEGSTPETIRSFSQKYRPMFFEELIGQSIVVQSLMNAVKRSRIAPVYLFQGPRGTGKTSTARIFSAALNCVATEEMKPCGYCKECNDFMSGKSKDFWELDGANKKGADKVRYLLKNLPTILPRNSSMYKVFVIDECHLLPSKTWLSFLKFLENPLQKVVFIFITTDLENVPRTIQSRCQKFLFDKLKDSDIVVRLKKIASDENLDVDLHALDLIAMNADGSLRDAETMLEQLSLLGKRITTALVNELVGVVSDEKLLELLELALSSDTAETVKRARELLDLGADPIVLMSQLASLIMDIIAGTYKVVDEKYSNAFFDGRNLTEADMEGLKHALKLLSEAEKQLRVSNDRSTWFTATLLQLGSMPSPGTTHTGSSRRQSSRATDDDPASVSREVMAYKQRIGGLHFSKSASPASVIKRNGNHSHEAKPFSRVIDNNCYKSSSSSQMIESEGSIASHENSIASTMMLNQRSSEKLNDIWRKCIERCHSKTLRQLLYTHGKLISISEVEGILVAYIAFGENDIKLRAERFLSSITNSIEMVLRRSVEVRIILLPETELLVVPHQTRKPEMTNKSGHLNNIAGLNAETDVEVGSSVESRSKLPMQRIESIIREQRLETAWLQTADKDTPGSIIRVKPERNQILPQEDTYRQTNVASAISSSGLTTHQWVDELNNEVKLLKIGDNGELQENLTGTRGQHCPLSPSLLHDTNFGNNKDNLGGYESGSGRVGCNILFCWNTKKTQRRSKSKQVKGTPVRSRRNRKSRFSLFNGCAKPRKAEGNIRR
Turning to B1, the binding entry was “binds”.
